Measurements published in publication PMC7938888, “Antidepressant drugs act by directly binding to TRKB neurotrophin receptors” (Cell, 2021).

The chains behind the UniProt entries cited, without tags or fusion partners. Residues count along the entry.
UniProt P15209, 32-821: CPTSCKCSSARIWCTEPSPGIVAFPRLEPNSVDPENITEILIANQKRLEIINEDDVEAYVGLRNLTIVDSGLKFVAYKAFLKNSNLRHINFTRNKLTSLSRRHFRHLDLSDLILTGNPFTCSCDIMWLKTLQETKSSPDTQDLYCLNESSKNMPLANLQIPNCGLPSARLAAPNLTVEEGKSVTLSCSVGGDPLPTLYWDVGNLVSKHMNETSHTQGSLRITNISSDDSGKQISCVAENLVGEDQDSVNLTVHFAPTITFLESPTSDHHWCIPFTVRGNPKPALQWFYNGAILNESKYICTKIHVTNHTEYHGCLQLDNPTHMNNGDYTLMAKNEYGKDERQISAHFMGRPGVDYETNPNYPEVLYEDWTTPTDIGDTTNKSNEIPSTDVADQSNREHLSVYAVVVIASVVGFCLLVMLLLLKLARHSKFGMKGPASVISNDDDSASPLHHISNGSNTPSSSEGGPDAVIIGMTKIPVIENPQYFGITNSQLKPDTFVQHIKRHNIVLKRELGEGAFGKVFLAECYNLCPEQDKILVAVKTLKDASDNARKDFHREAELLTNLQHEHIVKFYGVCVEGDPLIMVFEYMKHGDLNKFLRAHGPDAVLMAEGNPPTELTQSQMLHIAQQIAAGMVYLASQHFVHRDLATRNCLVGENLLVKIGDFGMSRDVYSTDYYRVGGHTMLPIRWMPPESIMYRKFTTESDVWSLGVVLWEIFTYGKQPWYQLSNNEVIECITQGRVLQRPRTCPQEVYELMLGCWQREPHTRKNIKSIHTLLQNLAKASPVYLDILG

Target: TRKB (Mus musculus, UniProt P15209)
Test: Cell-free ligand binding assay on immobilised TRKB from HEK293T lysates
Set-up: wild-type GFP-tagged full length TRKB or the GFP-tagged Y433F TRKB mutant; host or cells: HEK293T
Protocol: The cell-free assays (binding assays) were performed in white 96-well plates, based on the protocol used for western-blotting or ELISA ([Baeza-Raja et al., 2016]; [Das et al., 2015]). The plates were precoated with anti-GFP, anti-FLAG, anti-TRK or anti-TRKB antibody (1:1000) in carbonate buffer (pH 9.8), ON at 4°C. Following blocking with 3% BSA in PBS buffer (2 h at RT), 120 ug of total protein from each sample (of lysates from HEK293T cells transfected to overexpress GFP-TRKB.wt or GFP-TRKB.Y433F) were added and incubated overnight at 4°C under agitation. […] The luminescence was determined via HRP-conjugated streptavidin (1:10000, 1h, RT) activity reaction with ECL by a plate reader. The luminescence signal from blank wells (containing all the reagents but the sample lystates, substituted by the blocking buffer) was used as background. The specific signal was then calculated by subtracting the values of blank wells from the values of the samples with matched concentration of the biotinylated ligand. For Figure 2E, the precipitated TRKB.wt or Y433F was incubated with tritiated imipramine (0-30μM) and the radioactive emission of the ligand was determined by scintillation (OptiPhase Supermix cocktail: #1200-439; MicroBeta2, Perkin-Elmer). […]

SMILES: CNCCC(Oc1ccc(C(F)(F)F)cc1)c1ccccc1 (stereo not shown) [FLX, fluoxetine]
- Ki: 1690 nM
